{"source": "the supplement of paper PMC12889115", "system": "Salmonella enterica serovar Typhimurium SL1344", "experiment": "bacterial growth OD600 after 18 h with compound and polymyxin B; higher = more bacterial growth (less inhibition)", "conditions": "50 µM, Mueller-Hinton broth", "note": "The list shows a part of the results. These are raw signals, not scaled to a control.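 First-pass screen: polymyxin B was added at a level that permeabilizes the Salmonella outer membrane while sparing the inner membrane. DMSO wells, with and without polymyxin B, defined maximum growth. Because plates differed from one another, each plate's data were ranked separately and the compounds with the lowest OD600 were carried forward as hits.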", "data": [{"smiles": "C/C=C(\\C)CN1CCC(N2CCCC(C(=O)NCc3cccnc3)C2)CC1", "note": "(centres undefined)", "values": [{"measurement": "bacterial growth OD600", "setting": "polymyxin B 1 µg/mL", "result": 1.2}]}, {"smiles": "CCOc1ccc2nc(N3CCCC3C(=O)NCc3ccccc3-n3cncn3)nc(C)c2c1", "note": "(centres undefined)", "values": [{"measurement": "bacterial growth OD600", "setting": "polymyxin B 0.75 µg/mL", "result": 1}]}, {"smiles": "COCCN1C(=O)NC(Cc2ccccc2Cl)(C2CCN(C(=O)c3ccc(C)c(C)c3)CC2)C1=O", "note": "(centres undefined)", "values": [{"measurement": "bacterial growth OD600", "setting": "polymyxin B 0.75 µg/mL", "result": 0.816}]}, {"smiles": "O=C(CCC1CCCN(C(=O)/C(F)=C/c2ccccc2)C1)N1CCCC1", "note": "(centres undefined)", "values": [{"measurement": "bacterial growth OD600", "setting": "polymyxin B 0.75 µg/mL", "result": 0.671}]}, {"smiles": "Cc1cnc(SCCN2CCOCC2)nc1C1CCCN(C(=O)[C@@H]2CSC(=O)N2)C1", "note": "(some centres undefined)", "values": [{"measurement": "bacterial growth OD600", "setting": "polymyxin B 0.75 µg/mL", "result": 0.772}]}, {"smiles": "Cc1cc(C(=O)N2CCCC(N3CCN(Cc4ccc5c(c4)OCO5)CC3)C2)n(C)n1", "note": "(centres undefined)", "values": [{"measurement": "bacterial growth OD600", "setting": "polymyxin B 0.75 µg/mL", "result": 0.799}]}, {"smiles": "COc1ccccc1N1CCN(C2CCCN(Cc3cccc(C)n3)C2)CC1", "note": "(centres undefined)", "values": [{"measurement": "bacterial growth OD600", "setting": "polymyxin B 1 µg/mL", "result": 1.26}]}, {"smiles": "O=C1CCN(C(=O)CC(c2ccccc2)c2ccccc2Cl)CCN1", "note": "(centres undefined)", "values": [{"measurement": "bacterial growth OD600", "setting": "polymyxin B 1 µg/mL", "result": 0.869}]}, {"smiles": "CC(CCCC(C)(C)O)NC1CCN(c2ccc(CC(=O)NCCc3cccc(F)c3)cc2)CC1", "note": "(centres undefined)", "values": [{"measurement": "bacterial growth OD600", "setting": "polymyxin B 0.75 µg/mL", "result": 0.766}]}, {"smiles": "CC(=O)c1cccc(OCc2cc(C(=O)N3CCN(C)C(C)C3)n[nH]2)c1", "note": "(centres undefined)", "values": [{"measurement": "bacterial growth OD600", "setting": "polymyxin B 1 µg/mL", "result": 0.98}]}, {"smiles": "Cc1oc(-c2ccccc2NS(=O)(=O)Cc2ccccc2)nc1CNC(=O)CC(C)(C)C", "values": [{"measurement": "bacterial growth OD600", "setting": "polymyxin B 0.75 µg/mL", "result": 0.856}]}, {"smiles": "Cn1ccnc1CN1CCc2onc(C(c3ccccc3)c3ccccc3)c2C1", "values": [{"measurement": "bacterial growth OD600", "setting": "polymyxin B 0.75 µg/mL", "result": 0.008}]}, {"smiles": "Cc1oc(-c2cccc(C(F)(F)F)c2)nc1CN1CCN(c2cnccn2)CC1", "values": [{"measurement": "bacterial growth OD600", "setting": "polymyxin B 0.75 µg/mL", "result": 0.595}]}, {"smiles": "CCn1nc(C)c(CNC(=O)C2CCC(=O)N(CCc3ccc(OC)cc3)C2)c1C", "note": "(centres undefined)", "values": [{"measurement": "bacterial growth OD600", "setting": "polymyxin B 1 µg/mL", "result": 0.924}]}, {"smiles": "COCC1CCCCN1C(=O)c1cc(Cn2ccc3ccccc32)[nH]n1", "note": "(centres undefined)", "values": [{"measurement": "bacterial growth OD600", "setting": "polymyxin B 0.75 µg/mL", "result": 0.774}]}, {"smiles": "Fc1cccc(CNC2COc3ccccc3C2)c1F", "note": "(centres undefined)", "values": [{"measurement": "bacterial growth OD600", "setting": "polymyxin B 0.75 µg/mL", "result": 0.698}]}, {"smiles": "C=CCC(=O)N(CC1CCN(Cc2ccccc2C)CC1)CC1CCCO1", "note": "(centres undefined)", "values": [{"measurement": "bacterial growth OD600", "setting": "polymyxin B 1 µg/mL", "result": 1.13}]}, {"smiles": "O=C(c1cc[n+]([O-])cc1)N1CCC2(CCCN(CCC3CCCCC3)C2)C1", "note": "(centres undefined)", "values": [{"measurement": "bacterial growth OD600", "setting": "polymyxin B 1 µg/mL", "result": 1.04}]}, {"smiles": "Cc1c(CNC(=O)C2CCCN(C3CCN(C(C)C)CC3)C2)cnn1C", "note": "(centres undefined)", "values": [{"measurement": "bacterial growth OD600", "setting": "polymyxin B 0.75 µg/mL", "result": 0.963}]}]}
